Assay results: patent US5632988A, “Polypeptide inhibitors of gamma interferon” (Schering Corporation, priority 1992, dated 1997)
At least one peptide structure holds a part that was inferred or is arguable (an end, a ring closure or a residue). Ends that are not written are not given here.

System: antiviral effects of recombinant human gamma interferon D
Assay: Inhibition of antiviral effects of recombinant human gamma interferon D on human diploid foreskin cells challenged with encephalomyocarditis virus (CPE scoring)
Format: cell-based
Experimental: Control Medium A, various dilutions in Medium A of recombinant human gamma Interferon D in the presence of a fixed concentration of polypeptide No. I, or various dilutions of Medium A of polypeptide No. III in the presence of a fixed concentration of the interferon were pipetted in 0.1 ml total volumes into the wells of 96-well flat bottom microtiter plates.
Aliquots of a suspension of human diploid foreskin cells (0.1 ml, 3.5×10^5 cells/ml) in Medium A were pipetted into the wells of the microtiter plates, and the plates were incubated for 4 hours in a 37° C., 5% CO2 incubator. […]
A 0.025-0.05 aliquot of a solution of crystal violet stain (Sigma Chemical Co., St. Louis, Mo.; 0.485% in an aqueous solution containing 3.2% formaldehyde and 32.3% 95% ethanol) was added to each well, and the plates were allowed to stand for 30 minutes for color development. The stain solution was removed and the wells were washed at least three times with distilled water, after which the plates were scored for CPE with the aid of a fluorescent light viewer.
CPE was graded semi-quantitatively on a scale of 0 to 4, with grade O CPE corresponding to a complete absence of cell lysis as measured by cell staining with crystal violet and grade 4 CPE corresponding to total cell lysis and lack of staining.

Question: What does the source list for “AKKLSKDRMKKYMARRKWQKTGHAV [Polypeptide I]”?
Answer: CPE grade (interferon 30 pM with 0.1 mM polypeptide, scale 0 to 4): 4; CPE grade (interferon 1,200 pM with 0.1 mM polypeptide, scale 0 (no cell lysis) to 4 (total cell lysis)): 1
